Our source for the binding values is patent USRE47103 (AGENSYS, dated 2018).

In assay [1] the target is T1, recombinant 158P1D7 protein (human) (UniProt Q9H5Y7).
T1 sequence: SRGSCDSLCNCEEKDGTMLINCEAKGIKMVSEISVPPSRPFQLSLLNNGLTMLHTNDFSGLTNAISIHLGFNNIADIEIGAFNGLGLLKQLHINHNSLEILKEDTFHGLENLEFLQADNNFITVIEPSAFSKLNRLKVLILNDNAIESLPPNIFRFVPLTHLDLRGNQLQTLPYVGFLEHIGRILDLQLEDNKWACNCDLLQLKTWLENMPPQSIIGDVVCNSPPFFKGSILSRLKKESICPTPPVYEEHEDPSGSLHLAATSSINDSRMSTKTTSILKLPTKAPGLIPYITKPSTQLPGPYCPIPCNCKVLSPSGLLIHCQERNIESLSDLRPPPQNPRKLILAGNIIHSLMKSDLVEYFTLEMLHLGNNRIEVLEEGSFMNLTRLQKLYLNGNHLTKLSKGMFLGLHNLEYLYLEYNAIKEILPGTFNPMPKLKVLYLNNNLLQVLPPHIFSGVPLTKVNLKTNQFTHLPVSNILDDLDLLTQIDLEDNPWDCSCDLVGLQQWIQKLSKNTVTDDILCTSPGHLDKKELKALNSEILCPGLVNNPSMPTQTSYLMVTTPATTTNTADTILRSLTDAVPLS
Kind of assay: ELISA on 158P1D7 recombinant protein. For orientation: An ELISA detects its analyte on a solid surface through an enzyme-linked reagent.

Assay [2] addresses T1, recombinant 158P1D7 protein (human). Kind of assay: ELISA on recombinant 158P1D7 protein.

No constants are given. Whether binding was seen depends on the method and setting. Some binding calls cover weakened binding; strength is not graded here.

B1: 158P1D7 MAb Ha15-10ac12 (antibody, human IgG2, kappa, V domains shown)
VH: QVQLVESGGGVVQPGRSLRLSCAASGFTFSSYGMHWVRQAPGKGLEWVAVIWYDGSNQYYADSVKGRFTISRDNSKNTLFLQMHSLRAEDTAVYYCARGLTSGRYGMDVWGQGTTVTVSS
VL: DIVMTQSPLSLPVTPGEPASISCRSSQSLLLSHGFNYLDWYLQKPGQSPQLLIYLGSSRASGVPDRFSGSGSGTDFTLKISRVEAEDVGLYYCMQPLQIPWTFGQGTKVEIKR
notes: Fully human IgG2 kappa antibody from XenoMouse; It was tested both as material purified from the hybridoma and as recombinant material from CHO-K1SV cells; also called Ha15-10ac12 MAb
In the case of B1, the binding entry in assay [1] and in assay [2] was “binds” in each case.
